## Screening data, single-dose tests

Protein sequences, listed by entry. Tags and fused reporters are not part of them. Residues count along the entry.
UniProt A4I591, 1-473: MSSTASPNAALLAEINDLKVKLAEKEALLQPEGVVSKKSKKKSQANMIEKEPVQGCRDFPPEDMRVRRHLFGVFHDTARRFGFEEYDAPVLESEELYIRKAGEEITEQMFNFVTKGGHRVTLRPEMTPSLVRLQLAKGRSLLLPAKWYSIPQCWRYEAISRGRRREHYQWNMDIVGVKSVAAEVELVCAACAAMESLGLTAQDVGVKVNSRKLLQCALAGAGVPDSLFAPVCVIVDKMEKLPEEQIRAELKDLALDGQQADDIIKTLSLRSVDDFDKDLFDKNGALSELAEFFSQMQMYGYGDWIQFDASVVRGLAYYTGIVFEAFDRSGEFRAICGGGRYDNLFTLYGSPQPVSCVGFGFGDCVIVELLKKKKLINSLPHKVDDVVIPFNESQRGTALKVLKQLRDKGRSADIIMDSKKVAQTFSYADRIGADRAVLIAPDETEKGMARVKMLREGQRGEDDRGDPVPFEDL

Source: ChEMBL document CHEMBL3988442, “University of Dundee, Small-Polar-MMV Screening Library” (2021).

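Histidine-tRNA ligase, Leishmania infantum (UniProt A4I591). Enzyme assay of histidyl-tRNA synthetase; the read-out is not stated. Concentration: 30 µM. Higher reads as stronger inhibition (inferred: compounds with an IC50 in retests scored well above the rest). The assay is labelled LdHisRS but filed under L. infantum. About 69,000 compounds were tested under these conditions; 0.6% (about 410) showed 50% or more at least once.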

The filed quantity is “Percent Effect” (%). The record does not define 0% and 100%; most values in the screen are far below 50% and negative numbers occur (in some assays of this library far below -100). Compounds were drawn at random from those tested, without regard to their results.

For COc1ccc2c(c1)NC(=O)C2OC(=O)CC(C)(C)C (stereo unspecified) the result was 15.32%. O=C(NCCOc1ncc(Cl)cc1Cl)c1ccoc1 read 8.065%. With CS(=O)(=O)NC[C@@H]1OC[C@H]2CN(C(=O)c3ccccn3)CC[C@H]21 the screen gave 2.857%. With c1cnn(Cc2ccc(CN3CCC4(CCNCC4)C3)cc2)c1 the screen gave 13.6%. For O=C1C[C@H]2[C@@H](CCN2C(=O)c2ccccc2)N1CCN1CCOCC1 the result was 0%. Result for CCOc1nnc(CN2CCOC(CNc3cccnn3)C2)s1 (stereo unspecified) was 43.84%. For O=C(c1cn2cc(Cl)ccc2n1)N1CCC(CCn2cccn2)CC1 the result was 10.42%.

Cc1ccccc1Cc1nc(CSc2nnc(N)n2C2CC2)no1 gave 4.651%. Result for Cc1ccc2cc(C(=O)N3CCC(O)(C(F)(F)F)CC3)ccc2n1 was 10.26%. Result for CC1CN(c2ncccc2C(=O)N[C@@H]2CCCc3ccccc32)CCN1 (stereo partly specified) was 15.84%. Result for COc1ccccc1N1CCC(CNCc2ccc(C#N)cc2)C1 (stereo unspecified) was 30.36%. With CC(=O)N1CC(C(=O)NCCc2ncc(C)s2)C1 the screen gave 13.04%. For Cc1cc(C(=O)NCC(O)c2c(Cl)cccc2Cl)nn1C (stereo unspecified) the result was 7.407%. NC(=O)c1c(-c2ccc(Cl)cc2)csc1NC(=O)CCC(=O)O read -5%.

c1csc(CN2CCCn3cnc(COCC4CC4)c3C2)c1 gave 20.59%. For CCC(=O)Nc1cccc(C(=O)NCCC2=CSC3=NCCCN23)c1 the result was 16.78%. Cn1cc(C2CC(=O)NC23CCN(C(=O)c2ccc[nH]2)CC3)cn1 (stereo unspecified) gave 28%. For COc1ccc(CNC(=O)CNc2cc3c(cc2Cl)OCCO3)cc1 the result was 15.15%. Result for NC(=O)c1c(-c2ccc(Cl)cc2Cl)csc1NC(=O)CCC(=O)O was -7.5%. Cc1nc(C)n(CC2CCCN(CC(=O)Nc3nnc(C)s3)C2)n1 (stereo unspecified) read 14.68%. With Cc1noc(CN(C)C2CCCN(Cc3noc(C4CC4)n3)C2)n1 (stereo unspecified) the screen gave 16.67%.

Result for COC(=O)C(C)(C)S(=O)(=O)c1ccc(Br)cc1 was 7.292%. For CC(=O)N1CCC(c2nccnc2-c2ccc(F)c(F)c2)CC1 the result was 11.46%. For COc1cccc(CCC(=O)N2CCCC(c3nncn3C)C2)c1 (stereo unspecified) the result was 9.649%. Result for CC(C)c1nc(C2CCCN(C(=O)c3ccc4c(c3)OCO4)C2)no1 (stereo unspecified) was 11.97%. O=C(c1ccccc1C(F)(F)F)N1CC[C@@H](N2CCC(O)CC2)[C@H](O)C1 gave 8.547%. Result for CN1CCCn2c(nc(CNC(=O)c3ccsc3)cc2=O)C1 was 7.843%. For Cc1ccc(OCCSC2=NCCN2)cc1 the result was 0%.

O=C(CN1C(=O)CCC1=O)NCc1nn(C2CCCC2)c2c1CCCC2 read 8.696%. With CCC(CN1CCCC1)n1cncc1-c1cnn(-c2ccc(F)cc2)c1 (stereo unspecified) the screen gave -9.79%. CN(C)c1ccc(C(=O)N2CCCC2c2cnn(C)c2)cn1 (stereo unspecified) read 9.821%. Result for O=C(Nc1cc(C(F)(F)F)c[nH]c1=O)C1CCCNC1 (stereo unspecified) was 10.87%. Result for O=C(c1cnc(Nc2ccccc2)nc1)N1CCC(O)(CO)CC1 was 6.667%. With CCc1nc(C)c(CN2CCOC(Cc3cccc4ccccc34)C2)[nH]1 (stereo unspecified) the screen gave 21.71%.

Repeated from the top, 4 entries:

| structure | effect |
|---|---|
| `COc1ccc2c(c1)NC(=O)C2OC(=O)CC(C)(C)C` (stereo unspecified) | 15.32 |
| `O=C(NCCOc1ncc(Cl)cc1Cl)c1ccoc1` | 8.065 |
| `CS(=O)(=O)NC[C@@H]1OC[C@H]2CN(C(=O)c3ccccn3)CC[C@H]21` | 2.857 |
| `c1cnn(Cc2ccc(CN3CCC4(CCNCC4)C3)cc2)c1` | 13.6 |